Results deposited as PubChem BioAssay AID602196 (INSERM, 2012)
Screen: 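Modifiers of cisplatin sensitivity in A549 cells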. Cell system: human A549 lung cancer cells. Reagents: siRNA pair against human genes. Duration: 48 h transfection before cisplatin; time from cisplatin to read-out not stated. Treatment: cisplatin at a dose killing half of control-siRNA cells; exact dose and duration not given. Detection: 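Cisplatin cell death as a shift from the 50% death seen with control siRNA; siRNAs toxic or growth-blocking alone scored 0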. Direction: two-siRNA summed score (-2 to +2): higher = both siRNAs protect from cisplatin killing; -2 means both sensitise; mean protection from cisplatin (shift in death) and protection from cisplatin (shift in death), siRNA C and protection from cisplatin (shift in death), siRNA D: higher = protection from cisplatin killing. Rule for the call: 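siRNAs harmful alone (LDH or WST-1) get 0; others get +1 for less and -1 for more cisplatin killing; genes are active when the two siRNAs give the same sign, summing to ±2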. Calls: active = both siRNAs shift cisplatin killing the same way; inactive = no consistent shift, or siRNA harmful alone.
The deposit covers about 23,000 reagents; below is a random part of them. Over the whole deposit, 455 (2%) were called active. 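Active includes both protection and sensitisation; some change values fall well beyond the stated -50 to +50 range.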 The numbers tell different reagents against one gene apart. Not given: the amount of reagent.

The first 5 records, ahead of the listing:
gene symbol	reagent no.	two-siRNA summed score (-2 to +2)	mean protection from cisplatin (shift in death) (%)	protection from cisplatin (shift in death), siRNA C (%)	protection from cisplatin (shift in death), siRNA D (%)	activity call
LOC440863	1	0	10.8	11.4	10.2	inactive
LOC441941	1	0	18.7	24.6	12.8	inactive
PSTK	1	0	6.5	9.5	3.5	inactive
PRIMA1	1	0	8.2	8.7	7.6	inactive
PDGFRA	1	-1	-19	-18.7	-19.3	inactive

The listing, repeating the preview:
gene symbol	reagent no.	two-siRNA summed score (-2 to +2)	mean protection from cisplatin (shift in death) (%)	protection from cisplatin (shift in death), siRNA C (%)	protection from cisplatin (shift in death), siRNA D (%)	activity call
LOC440863	1	0	10.8	11.4	10.2	inactive
LOC441941	1	0	18.7	24.6	12.8	inactive
PSTK	1	0	6.5	9.5	3.5	inactive
PRIMA1	1	0	8.2	8.7	7.6	inactive
PDGFRA	1	-1	-19	-18.7	-19.3	inactive
ZNF331	1	-1	-8.8	-6.6	-11	inactive
LOC92235	1	-1	-21.1	-31.3	-10.9	inactive
WASF2	1	1	8.1	-4	20.1	inactive
CELSR3	1	0	-6.5	-17.8	4.8	inactive
LOC389907	1	0	3.3	4.6	2	inactive
FAM74A1	1	0	6.5	4.5	8.6	inactive
C11orf16	1	1	10	23.2	-3.1	inactive
MANBAL	1	0	-12.2	-13.6	-10.9	inactive
LOC441842	1	1	14.2	18.8	9.5	inactive
ZNF197	1	0	3.3	3.7	2.9	inactive
LDHD	1	1	7.7	3.7	11.8	inactive
ADGRB1	1	0	2.5	6.3	-1.2	inactive
TRIM7	1	0	3.9	14.1	-6.3	inactive
SOHLH2	1	0	9.2	4.6	13.7	inactive
LOC440279	1	1	10.3	23.4	-2.9	inactive
DOHH	1	1	1.8	12	-8.4	inactive
EMC9	1	0	0.5	0.4	0.5	inactive
RFX5	1	1	15.4	18	12.8	inactive
CSDE1	1	1	15.4	18.7	12.2	inactive
DISP2	1	1	5.8	21.1	-9.5	inactive
MTREX	1	0	1.9	-6.5	10.3	inactive
ZCWPW1	1	0	4.8	5.4	4.2	inactive
SLC38A4	1	0	5.4	2.4	8.4	inactive
NTAN1	1	0	6	4.5	7.5	inactive
CRYGEP	1	0	6.1	0.1	12.1	inactive
UNC93B1	1	0	8.9	10.1	7.7	inactive
SHCBP1L	1	0	4	2.3	5.6	inactive
CCR2	1	1	7.5	-5	19.9	inactive
TMUB2	1	0	-2.5	-4.5	-0.4	inactive
ALKBH7	1	-1	-12.6	3.1	-28.3	inactive
LOC441158	1	0	16.7	30.4	2.9	inactive
NPEPPSP1	1	0	12.8	4.4	21.3	inactive
SPATA19	1	0	3.1	5.9	0.3	inactive
RPS2P6	1	0	25.3	15.6	35.1	inactive
APRG1	1	0	20.1	18.1	22.1	inactive
GSTM4	1	-1	-5.1	5.6	-15.9	inactive
LOC390342	1	2	17.1	10.9	23.3	active
SF3A3	1	0	15.6	18.7	12.4	inactive
COL7A1	1	0	16.4	24.1	8.7	inactive
PRSS41	1	1	13.2	20.1	6.2	inactive
LOC441542	1	0	5.1	3.7	6.4	inactive
HLA-DRB4	1	-1	-7.7	0.6	-16	inactive
LOC391427	1	1	16.6	21.4	11.8	inactive
GPR78	1	0	2.1	13.9	-9.7	inactive
PHYKPL	1	0	27.2	-6.9	61.3	inactive
VAMP1	1	-1	-2.7	10.7	-16	inactive
AFG3L2	1	-1	-19.1	-37.1	-1.2	inactive
KPNA1	1	0	15.4	14.8	16	inactive
PIEZO2	1	-1	-10.5	-26	5	inactive
PIEZO2	2	0	8.8	9.2	8.5	inactive
PPA1	1	0	-1.8	7.3	-10.9	inactive
CDKAL1	1	1	10.4	-0.4	21.2	inactive
